Assay results: the supplement of paper PMC10849652
Some of the results follow.

Chains of the proteins cited; added tags and fusions are not shown. Lines headed by an entry give the natural chain unless they say otherwise; changes in a name come on top.
UniProt O00442: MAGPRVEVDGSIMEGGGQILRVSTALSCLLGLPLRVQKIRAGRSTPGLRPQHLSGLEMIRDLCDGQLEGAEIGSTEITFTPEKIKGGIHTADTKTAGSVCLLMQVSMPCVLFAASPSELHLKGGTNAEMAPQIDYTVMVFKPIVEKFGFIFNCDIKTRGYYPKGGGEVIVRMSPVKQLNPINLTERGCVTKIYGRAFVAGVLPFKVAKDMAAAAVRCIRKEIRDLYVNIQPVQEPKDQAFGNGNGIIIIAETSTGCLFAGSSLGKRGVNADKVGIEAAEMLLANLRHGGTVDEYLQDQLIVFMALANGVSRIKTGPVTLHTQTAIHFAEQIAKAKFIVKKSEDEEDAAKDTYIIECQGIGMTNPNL
UniProt Q9NRP4: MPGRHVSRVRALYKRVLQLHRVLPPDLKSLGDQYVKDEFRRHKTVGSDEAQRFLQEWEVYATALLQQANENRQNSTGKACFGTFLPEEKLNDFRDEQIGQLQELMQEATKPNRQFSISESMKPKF
UniProt Q14151: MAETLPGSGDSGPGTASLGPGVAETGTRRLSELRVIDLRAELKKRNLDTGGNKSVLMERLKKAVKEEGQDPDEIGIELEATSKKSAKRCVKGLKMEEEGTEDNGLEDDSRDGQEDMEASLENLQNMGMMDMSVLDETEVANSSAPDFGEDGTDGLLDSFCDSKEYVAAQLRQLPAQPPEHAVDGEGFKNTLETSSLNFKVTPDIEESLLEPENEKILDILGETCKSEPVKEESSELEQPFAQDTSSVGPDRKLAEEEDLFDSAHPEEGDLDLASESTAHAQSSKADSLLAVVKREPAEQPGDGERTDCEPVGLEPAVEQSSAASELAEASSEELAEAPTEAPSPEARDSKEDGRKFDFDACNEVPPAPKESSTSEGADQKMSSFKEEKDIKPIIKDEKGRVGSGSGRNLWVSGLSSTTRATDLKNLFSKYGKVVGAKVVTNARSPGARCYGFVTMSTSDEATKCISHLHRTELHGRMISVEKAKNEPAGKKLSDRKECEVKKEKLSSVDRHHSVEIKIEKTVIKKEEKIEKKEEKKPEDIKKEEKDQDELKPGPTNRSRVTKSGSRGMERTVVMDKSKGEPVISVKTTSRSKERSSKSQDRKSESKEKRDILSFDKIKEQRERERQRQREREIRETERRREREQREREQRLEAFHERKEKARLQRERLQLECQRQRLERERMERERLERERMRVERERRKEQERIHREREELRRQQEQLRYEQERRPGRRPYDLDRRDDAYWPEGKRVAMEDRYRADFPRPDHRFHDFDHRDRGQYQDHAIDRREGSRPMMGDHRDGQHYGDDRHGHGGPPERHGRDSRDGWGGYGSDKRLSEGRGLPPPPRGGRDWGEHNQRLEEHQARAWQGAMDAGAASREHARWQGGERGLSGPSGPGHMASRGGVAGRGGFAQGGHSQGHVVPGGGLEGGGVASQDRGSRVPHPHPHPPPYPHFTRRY
UniProt Q9NSI8: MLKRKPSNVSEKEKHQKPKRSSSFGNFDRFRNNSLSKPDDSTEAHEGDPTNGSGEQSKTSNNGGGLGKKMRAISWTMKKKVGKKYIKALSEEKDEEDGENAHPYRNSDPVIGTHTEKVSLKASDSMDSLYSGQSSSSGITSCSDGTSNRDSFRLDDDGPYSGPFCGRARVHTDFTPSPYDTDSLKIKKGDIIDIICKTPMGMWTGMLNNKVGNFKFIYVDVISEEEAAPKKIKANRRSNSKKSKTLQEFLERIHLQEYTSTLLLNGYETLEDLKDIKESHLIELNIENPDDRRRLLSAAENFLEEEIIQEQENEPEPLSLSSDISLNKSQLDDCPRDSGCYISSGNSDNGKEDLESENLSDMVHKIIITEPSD
UniProt Q9UPN6: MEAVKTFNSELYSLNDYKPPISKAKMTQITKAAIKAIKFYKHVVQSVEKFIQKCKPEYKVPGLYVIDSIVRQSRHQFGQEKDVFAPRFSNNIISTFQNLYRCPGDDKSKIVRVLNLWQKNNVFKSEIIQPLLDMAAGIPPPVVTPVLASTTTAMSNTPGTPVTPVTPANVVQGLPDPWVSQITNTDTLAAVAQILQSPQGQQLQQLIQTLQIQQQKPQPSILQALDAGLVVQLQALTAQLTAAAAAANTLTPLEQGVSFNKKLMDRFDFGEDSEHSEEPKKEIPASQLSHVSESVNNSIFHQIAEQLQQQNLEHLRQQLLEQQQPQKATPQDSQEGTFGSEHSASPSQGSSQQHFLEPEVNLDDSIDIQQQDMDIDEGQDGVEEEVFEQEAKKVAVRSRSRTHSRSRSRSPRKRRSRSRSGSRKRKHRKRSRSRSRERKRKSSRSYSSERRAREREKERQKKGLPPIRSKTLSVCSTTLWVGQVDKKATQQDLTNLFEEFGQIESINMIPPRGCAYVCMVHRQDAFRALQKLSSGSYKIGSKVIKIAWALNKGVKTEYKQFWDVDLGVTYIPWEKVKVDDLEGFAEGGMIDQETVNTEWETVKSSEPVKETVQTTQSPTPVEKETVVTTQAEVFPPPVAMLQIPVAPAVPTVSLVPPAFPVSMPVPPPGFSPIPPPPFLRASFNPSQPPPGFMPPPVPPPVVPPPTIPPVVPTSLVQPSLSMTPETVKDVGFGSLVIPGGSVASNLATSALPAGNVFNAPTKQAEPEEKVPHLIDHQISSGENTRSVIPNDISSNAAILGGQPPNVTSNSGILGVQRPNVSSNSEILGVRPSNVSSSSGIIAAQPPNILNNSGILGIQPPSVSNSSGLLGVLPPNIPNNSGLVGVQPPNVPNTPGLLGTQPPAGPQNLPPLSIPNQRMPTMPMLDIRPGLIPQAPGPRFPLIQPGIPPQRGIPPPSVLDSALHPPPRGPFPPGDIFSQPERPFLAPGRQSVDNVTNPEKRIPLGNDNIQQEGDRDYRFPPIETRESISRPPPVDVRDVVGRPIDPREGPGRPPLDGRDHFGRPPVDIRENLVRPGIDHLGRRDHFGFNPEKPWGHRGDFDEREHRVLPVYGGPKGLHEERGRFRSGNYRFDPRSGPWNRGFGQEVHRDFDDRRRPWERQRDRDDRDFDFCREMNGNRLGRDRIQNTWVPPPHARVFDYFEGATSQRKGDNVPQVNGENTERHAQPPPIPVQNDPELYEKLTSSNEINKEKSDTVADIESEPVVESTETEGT
UniProt Q9HB40: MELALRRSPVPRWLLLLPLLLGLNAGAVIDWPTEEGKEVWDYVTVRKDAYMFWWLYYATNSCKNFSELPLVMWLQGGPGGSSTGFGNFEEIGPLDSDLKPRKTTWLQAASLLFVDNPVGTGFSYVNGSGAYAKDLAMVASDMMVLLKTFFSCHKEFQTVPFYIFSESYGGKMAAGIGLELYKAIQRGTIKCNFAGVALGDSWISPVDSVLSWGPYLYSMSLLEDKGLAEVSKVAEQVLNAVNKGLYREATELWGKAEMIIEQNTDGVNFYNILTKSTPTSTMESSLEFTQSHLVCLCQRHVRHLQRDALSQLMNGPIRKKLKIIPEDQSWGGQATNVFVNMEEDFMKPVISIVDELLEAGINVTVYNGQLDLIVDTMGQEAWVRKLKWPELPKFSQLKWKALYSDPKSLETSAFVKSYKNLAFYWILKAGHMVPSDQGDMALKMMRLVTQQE
UniProt Q96GA7: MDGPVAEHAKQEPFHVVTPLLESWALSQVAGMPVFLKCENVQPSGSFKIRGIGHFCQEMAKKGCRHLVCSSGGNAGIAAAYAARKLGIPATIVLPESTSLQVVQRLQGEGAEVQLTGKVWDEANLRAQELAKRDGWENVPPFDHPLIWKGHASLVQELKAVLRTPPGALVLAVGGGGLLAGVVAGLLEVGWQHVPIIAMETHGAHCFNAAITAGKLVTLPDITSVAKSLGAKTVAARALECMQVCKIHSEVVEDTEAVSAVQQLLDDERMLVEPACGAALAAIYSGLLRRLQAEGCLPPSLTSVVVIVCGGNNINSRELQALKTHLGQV
UniProt Q6PCB5: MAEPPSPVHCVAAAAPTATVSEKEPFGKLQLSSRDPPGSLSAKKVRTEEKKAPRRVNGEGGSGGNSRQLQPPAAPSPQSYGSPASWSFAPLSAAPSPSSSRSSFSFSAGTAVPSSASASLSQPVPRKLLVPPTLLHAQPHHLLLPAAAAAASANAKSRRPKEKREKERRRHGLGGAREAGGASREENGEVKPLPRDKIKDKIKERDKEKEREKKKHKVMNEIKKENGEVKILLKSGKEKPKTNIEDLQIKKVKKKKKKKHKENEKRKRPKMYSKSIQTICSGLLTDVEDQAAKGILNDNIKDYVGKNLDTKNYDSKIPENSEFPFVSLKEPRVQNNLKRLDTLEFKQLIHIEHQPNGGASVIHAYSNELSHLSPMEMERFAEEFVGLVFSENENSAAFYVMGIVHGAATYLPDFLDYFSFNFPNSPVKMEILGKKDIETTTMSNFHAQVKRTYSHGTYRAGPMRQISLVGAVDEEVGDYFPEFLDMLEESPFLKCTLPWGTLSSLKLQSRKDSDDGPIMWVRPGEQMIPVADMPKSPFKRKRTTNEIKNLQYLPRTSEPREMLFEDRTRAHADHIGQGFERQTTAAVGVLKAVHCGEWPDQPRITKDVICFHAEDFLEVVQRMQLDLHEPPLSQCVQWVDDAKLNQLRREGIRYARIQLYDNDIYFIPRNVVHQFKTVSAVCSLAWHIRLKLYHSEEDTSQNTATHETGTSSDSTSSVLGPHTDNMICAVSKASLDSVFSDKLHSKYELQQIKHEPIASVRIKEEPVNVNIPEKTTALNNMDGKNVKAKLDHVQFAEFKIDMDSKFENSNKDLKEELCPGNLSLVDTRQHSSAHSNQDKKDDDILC
UniProt P25815: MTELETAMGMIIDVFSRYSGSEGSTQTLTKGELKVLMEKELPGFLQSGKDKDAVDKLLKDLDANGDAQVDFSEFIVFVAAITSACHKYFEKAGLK
UniProt O75396: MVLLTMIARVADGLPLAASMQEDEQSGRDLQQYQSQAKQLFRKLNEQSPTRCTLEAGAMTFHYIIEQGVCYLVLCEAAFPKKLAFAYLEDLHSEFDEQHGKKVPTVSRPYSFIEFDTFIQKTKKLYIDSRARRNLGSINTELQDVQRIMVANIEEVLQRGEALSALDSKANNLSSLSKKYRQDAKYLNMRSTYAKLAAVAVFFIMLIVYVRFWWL
UniProt Q96BU1: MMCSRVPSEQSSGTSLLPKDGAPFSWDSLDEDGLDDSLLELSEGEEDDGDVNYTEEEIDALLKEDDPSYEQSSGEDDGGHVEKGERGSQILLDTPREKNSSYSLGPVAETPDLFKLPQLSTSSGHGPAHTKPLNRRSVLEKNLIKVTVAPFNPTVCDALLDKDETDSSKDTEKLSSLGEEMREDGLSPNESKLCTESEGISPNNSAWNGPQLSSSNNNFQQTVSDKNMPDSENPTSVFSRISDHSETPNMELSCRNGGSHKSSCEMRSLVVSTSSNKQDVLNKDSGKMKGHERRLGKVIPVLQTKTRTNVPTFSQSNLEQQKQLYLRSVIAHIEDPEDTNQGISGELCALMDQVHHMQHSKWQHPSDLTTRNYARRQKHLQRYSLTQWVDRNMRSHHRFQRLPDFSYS
UniProt Q13296: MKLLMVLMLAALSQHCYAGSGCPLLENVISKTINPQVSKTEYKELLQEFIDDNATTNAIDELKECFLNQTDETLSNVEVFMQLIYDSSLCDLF
UniProt Q9NRG7: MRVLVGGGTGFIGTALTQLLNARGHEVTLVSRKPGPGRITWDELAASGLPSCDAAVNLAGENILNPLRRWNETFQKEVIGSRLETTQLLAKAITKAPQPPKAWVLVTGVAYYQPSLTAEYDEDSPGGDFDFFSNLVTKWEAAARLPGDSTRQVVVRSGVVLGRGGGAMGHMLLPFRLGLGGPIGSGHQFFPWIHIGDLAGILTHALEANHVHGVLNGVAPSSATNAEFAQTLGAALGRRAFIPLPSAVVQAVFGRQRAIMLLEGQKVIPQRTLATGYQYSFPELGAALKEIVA
UniProt Q7L4I2: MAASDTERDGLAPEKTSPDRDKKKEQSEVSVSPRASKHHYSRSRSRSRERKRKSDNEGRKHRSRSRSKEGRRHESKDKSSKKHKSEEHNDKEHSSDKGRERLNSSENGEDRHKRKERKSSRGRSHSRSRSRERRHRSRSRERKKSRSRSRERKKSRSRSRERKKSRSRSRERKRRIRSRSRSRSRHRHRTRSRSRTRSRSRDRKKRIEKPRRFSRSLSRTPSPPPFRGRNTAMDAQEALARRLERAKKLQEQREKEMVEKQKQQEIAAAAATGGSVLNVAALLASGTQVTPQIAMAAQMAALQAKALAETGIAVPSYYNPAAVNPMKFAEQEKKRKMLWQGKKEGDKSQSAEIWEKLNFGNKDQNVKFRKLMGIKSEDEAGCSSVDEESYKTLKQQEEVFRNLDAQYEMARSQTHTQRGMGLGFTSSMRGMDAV
UniProt Q96BY9: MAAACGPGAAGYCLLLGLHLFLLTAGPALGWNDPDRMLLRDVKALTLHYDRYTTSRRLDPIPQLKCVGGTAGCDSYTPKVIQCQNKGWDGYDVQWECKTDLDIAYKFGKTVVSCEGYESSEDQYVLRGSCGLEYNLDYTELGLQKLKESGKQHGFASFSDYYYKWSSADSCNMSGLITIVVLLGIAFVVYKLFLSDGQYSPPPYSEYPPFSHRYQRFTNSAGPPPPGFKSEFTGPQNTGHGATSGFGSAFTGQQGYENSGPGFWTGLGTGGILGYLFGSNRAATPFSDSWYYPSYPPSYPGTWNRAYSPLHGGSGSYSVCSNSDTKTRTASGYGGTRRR

What was measured:
Assay in all cases: log2 fold change, soluble protein after heating vs DMSO (PISA); higher = thermal stabilisation; K562 cells, 10 uM, 30 min; active = over 0.2 and 3.5 SD of the protein, either way, in both replicates (recomputed)
bafetinib = compound: Cc1ccc(NC(=O)c2ccc(CN3CC[C@H](N(C)C)C3)c(C(F)(F)F)c2)cc1Nc1nccc(-c2cncnc2)n1 [bafetinib]
Summary of the method: (§1)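 K562 cells (2×10^6 cells/mL) were treated with 10 μM compound for 30 min, and aliquots were heated for 3 min over 48°C-58°C. Pooled aliquots were extracted in PBS with 0.5% NP-40 at 4°C, and the supernatant after 21,000xg for 90 min was measured by TMTpro 16plex LC-MS/MS with channel sums equalised. Reported thermal stability, relative to control samples and from duplicates, is a log2 fold change.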

[1] = compound: Cc1cccc(CC(=O)N2CCc3c2ccc(-c2cn(C)c4ncnc(N)c24)c3F)n1
Summary of the method: as §1

nilotinib = compound: Cc1cn(-c2cc(NC(=O)c3ccc(C)c(Nc4nccc(-c5cccnc5)n4)c3)cc(C(F)(F)F)c2)cn1 [nilotinib]
Summary of the method: as §1

[2] = compound: Cc1nc(Nc2n[nH]c3c2CN(C(=O)N[C@H](CN(C)C)c2ccccc2)C3(C)C)c2sccc2n1
Summary of the method: as §1

dasatinib = compound: Cc1nc(Nc2ncc(C(=O)Nc3c(C)cccc3Cl)s2)cc(N2CCN(CCO)CC2)n1 [dasatinib]
Summary of the method: as §1

[3] = compound: Cc1ncc(-c2ccnc(Nc3ccc(S(C)(=O)=O)cc3)n2)n1C(C)C
Summary of the method: as §1

[4] = compound: Cn1cc(-c2ccc3c(c2)CCN3C(=O)Cc2cccc(C(F)(F)F)c2)c2c(N)ncnc21
Summary of the method: as §1

[5] = compound: Cn1cc(-c2ccc3nnc(C(F)(F)c4ccc5ncccc5c4)n3n2)cn1
Summary of the method: as §1

tipifarnib = compound: Cn1cncc1[C@@](N)(c1ccc(Cl)cc1)c1ccc2c(c1)c(-c1cccc(Cl)c1)cc(=O)n2C [tipifarnib]
Summary of the method: as §1

mubritinib = compound: FC(F)(F)c1ccc(/C=C/c2nc(COc3ccc(CCCCn4ccnn4)cc3)co2)cc1 [mubritinib]
Summary of the method: as §1

| Target | log2 fold change (bafetinib) | log2 fold change [1] | log2 fold change (nilotinib) | log2 fold change [2] | log2 fold change (dasatinib) | log2 fold change [3] | log2 fold change [4] | log2 fold change [5] | log2 fold change (tipifarnib) | log2 fold change (mubritinib) |
| --- | --- | --- | --- | --- | --- | --- | --- | --- | --- | --- |
| RWDD4 (UniProt Q6NW29) | inactive: -0.129 | inactive: 0.032 | inactive: 0.223 | inactive: 0.006 | inactive: -0.076 | inactive: -0.101 | inactive: 0 | inactive: 0.07 | inactive: -0.012 | inactive: 0.028 |
| SCD (UniProt O00767) | inactive: -0.153 | inactive: 0.109 | inactive: -0.063 | inactive: -0.007 | inactive: -0.026 | inactive: -0.019 | inactive: 0.013 | inactive: 0.034 | inactive: 0.075 | inactive: 0.019 |
| SAR1B (UniProt Q9Y6B6) | inactive: 0.062 | inactive: 0.003 | inactive: 0.041 | inactive: 0.036 | inactive: -0.097 | inactive: 0.065 | inactive: 0.036 | inactive: 0.026 | inactive: -0.102 | inactive: 0.09 |
| RTCA (UniProt O00442) | inactive: -0.062 | inactive: -0.041 | inactive: 0.039 | inactive: 0.016 | inactive: -0.054 | inactive: 0 | inactive: 0.046 | inactive: -0.001 | inactive: -0.025 | inactive: -0.036 |
| SDHAF3 (UniProt Q9NRP4) | inactive: -0.081 | inactive: -0.092 | inactive: -0.051 | inactive: 0.042 | inactive: -0.089 | inactive: -0.034 | inactive: -0.048 | inactive: 0.058 | inactive: 0.019 | inactive: 0.059 |
| SAFB2 (UniProt Q14151) | inactive: 0.17 | inactive: -0.018 | inactive: -0.016 | inactive: 0.117 | inactive: 0.183 | inactive: -0.054 | inactive: -0.135 | inactive: -0.058 | inactive: 0.085 | inactive: -0.077 |
| RSL1D1 (UniProt O76021) | inactive: 0.288 | inactive: -0.027 | inactive: 0.117 | inactive: 0.109 | inactive: 0.239 | inactive: 0.264 | inactive: -0.427 | inactive: -0.18 | inactive: 0.15 | inactive: -0.244 |
| SDHB (UniProt P21912) | inactive: -0.073 | inactive: -0.094 | inactive: 0.115 | inactive: -0.027 | inactive: 0.041 | inactive: -0.001 | inactive: 0.009 | inactive: 0 | inactive: 0.015 | inactive: 0.03 |
| SAMSN1 isoform 3 (UniProt Q9NSI8) | inactive: -0.049 | inactive: 0.04 | inactive: -0.036 | inactive: -0.169 | inactive: -0.09 | inactive: 0.02 | inactive: 0.029 | inactive: 0.037 | inactive: -0.015 | inactive: 0.048 |
| SCAF8 isoform 2 (UniProt Q9UPN6) | inactive: -0.024 | inactive: 0.019 | inactive: -0.032 | inactive: -0.208 | inactive: -0.212 | inactive: 0.069 | inactive: 0.064 | inactive: 0.008 | inactive: -0.027 | inactive: 0.023 |
| SCPEP1 (UniProt Q9HB40) | active: -0.499 | inactive: -0.013 | inactive: 0.028 | inactive: -0.006 | inactive: -0.007 | inactive: -0.004 | inactive: 0.023 | inactive: 0.034 | inactive: 0.026 | inactive: 0.04 |
| SDSL (UniProt Q96GA7) | inactive: -0.057 | inactive: -0.042 | inactive: 0.026 | inactive: 0.018 | inactive: 0.033 | inactive: -0.039 | inactive: 0.004 | inactive: 0.009 | inactive: 0.103 | inactive: 0.063 |
| SART1 (UniProt O43290) | inactive: 0.21 | inactive: -0.03 | inactive: 0.038 | inactive: -0.057 | inactive: 0.108 | inactive: -0.08 | inactive: -0.372 | inactive: -0.225 | inactive: 0.167 | inactive: -0.156 |
| SEC11A isoform 3 (UniProt P67812) | inactive: -0.058 | inactive: 0.024 | inactive: 0.003 | inactive: -0.011 | inactive: -0.003 | inactive: 0.006 | inactive: -0.033 | inactive: 0.027 | inactive: 0.022 | inactive: -0.016 |
| RSBN1L (UniProt Q6PCB5) | inactive: 0.226 | inactive: -0.08 | inactive: 0.113 | inactive: 0.241 | inactive: 0.284 | inactive: -0.084 | inactive: -0.376 | inactive: -0.136 | inactive: 0.293 | inactive: -0.177 |
| SASH1 (UniProt O94885) | inactive: -0.052 | inactive: -0.006 | inactive: -0.079 | inactive: -0.071 | inactive: -0.046 | inactive: 0.034 | inactive: 0.011 | inactive: 0.073 | inactive: 0.025 | inactive: 0.032 |
| SCG3 (UniProt Q8WXD2) | inactive: 0.075 | inactive: -0.027 | inactive: 0.172 | inactive: -0.098 | inactive: 0.151 | inactive: -0.032 | inactive: 0.147 | inactive: -0.037 | inactive: 0.044 | inactive: -0.01 |
| S100P (UniProt P25815) | inactive: -0.1 | inactive: -0.068 | inactive: 0.034 | inactive: 0.045 | inactive: 0.046 | inactive: -0.006 | inactive: 0.182 | inactive: 0.377 | inactive: -0.059 | inactive: 0.003 |
| SAR1A (UniProt Q9NR31) | inactive: 0.045 | inactive: 0.009 | inactive: 0.127 | inactive: 0.021 | inactive: 0.005 | inactive: 0.112 | inactive: 0.011 | inactive: -0.035 | inactive: -0.107 | inactive: 0.207 |
| SEC22B (UniProt O75396) | inactive: -0.003 | inactive: 0.047 | inactive: -0.016 | inactive: -0.004 | inactive: -0.021 | inactive: 0.008 | inactive: 0.049 | inactive: -0.007 | inactive: -0.021 | inactive: 0.025 |
| SEC16A isoform 5 (UniProt O15027) | inactive: 0.023 | inactive: 0.096 | inactive: 0.017 | inactive: -0.048 | inactive: -0.169 | inactive: 0.021 | inactive: -0.006 | inactive: -0.051 | inactive: 0.012 | inactive: -0.081 |
| SCAMP4 (UniProt Q969E2) | inactive: -0.076 | inactive: 0.102 | inactive: 0.039 | inactive: 0.004 | inactive: -0.06 | inactive: -0.003 | inactive: 0.085 | inactive: -0.054 | inactive: 0.003 | inactive: 0.173 |
| S100PBP (UniProt Q96BU1) | inactive: -0.046 | inactive: 0.132 | inactive: 0.017 | inactive: -0.104 | – | inactive: 0.017 | inactive: -0.015 | inactive: -0.075 | inactive: 0.07 | inactive: -0.037 |
| SCGB2A2 (UniProt Q13296) | inactive: 0.535 | inactive: -0.205 | inactive: -0.307 | inactive: 0.161 | – | inactive: -0.109 | – | – | inactive: -0.081 | inactive: -0.296 |
| SDR39U1 (UniProt Q9NRG7) | inactive: 0.681 | inactive: -0.071 | inactive: 0.621 | inactive: 0.014 | inactive: 0.059 | inactive: 0.189 | inactive: 0.749 | – | inactive: -0.149 | inactive: 0.356 |
| RSRC2 (UniProt Q7L4I2) | inactive: -0.091 | inactive: -0.091 | inactive: 0 | active: -2.11 | inactive: 0.002 | inactive: -0.028 | inactive: -0.007 | inactive: -0.056 | inactive: 0.012 | inactive: 0.02 |
| SCO1 (UniProt O75880) | inactive: -0.048 | inactive: -0.019 | inactive: 0.005 | inactive: 0.03 | inactive: -0.041 | inactive: -0.039 | inactive: -0.006 | inactive: 0.022 | inactive: 0.103 | inactive: 0.023 |
| RTN4 (UniProt Q9NQC3) | inactive: -0.019 | inactive: -0.045 | inactive: -0.039 | inactive: 0.036 | inactive: 0.043 | inactive: -0.044 | inactive: -0.002 | inactive: -0.038 | inactive: -0.029 | inactive: 0.002 |
| SARAF (UniProt Q96BY9) | inactive: -0.262 | inactive: 0.031 | – | – | inactive: -0.103 | – | inactive: 0.13 | – | inactive: 0.09 | – |

Reformatted with bars between the fields: entries from further up.
Target | log2 fold change (bafetinib) | log2 fold change [1] | log2 fold change (nilotinib) | log2 fold change [2] | log2 fold change (dasatinib) | log2 fold change [3] | log2 fold change [4] | log2 fold change [5] | log2 fold change (tipifarnib) | log2 fold change (mubritinib)
SDSL (UniProt Q96GA7) | inactive: -0.057 | inactive: -0.042 | inactive: 0.026 | inactive: 0.018 | inactive: 0.033 | inactive: -0.039 | inactive: 0.004 | inactive: 0.009 | inactive: 0.103 | inactive: 0.063
SART1 (UniProt O43290) | inactive: 0.21 | inactive: -0.03 | inactive: 0.038 | inactive: -0.057 | inactive: 0.108 | inactive: -0.08 | inactive: -0.372 | inactive: -0.225 | inactive: 0.167 | inactive: -0.156
